Results deposited as PubChem BioAssay AID1259299 (Sanger Institute, 2017).
The deposit covers 794 reagents; below is a part drawn at random. 9 of all reagents (1.1%) were called active. 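Calls rest on knock-down alone; synergy scores play no part in calls, and no gene passed the synergy cut.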 No viability above 1 is reported: the scale is capped. Not given: the amount of reagent, the time to read-out.

Purpose: 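Knock-down screen of kinome and colorectal mutation genes alongside three targeted drugs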 (primary screen)
Cells: human CAR1 colorectal cancer cells
Reagent: siRNA pool against human genes
Challenge: anchor drug BYL719 1 µM, cetuximab 5 µg/ml or trametinib 10 nM, or DMSO vehicle alone; exposure length not given
Read-out: 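Cell viability as fraction of non-targeting siRNA wells, mean of replicates, with robust z-score and a synergy score for each of three drugs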
Direction: viability robust z-score, knock-down alone and viability, knock-down alone (DMSO): higher = more viable cells; synergy score with BYL719 and synergy score with cetuximab and synergy score with trametinib: higher = stronger synergy with drug (synthetic lethal)
Hit rule: 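a gene is called essential if its knock-down-alone viability z-score drops under -3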
Meaning of the calls: active = essential (knock-down alone); inactive = no change

no.	Target gene	viability robust z-score, knock-down alone	viability, knock-down alone (DMSO) (fraction of control)	synergy score with BYL719	synergy score with cetuximab	synergy score with trametinib	call
1	PRKAG1	0.295	0.954	-0.242	0.0124	-0.00504	inactive
2	MAP3K21	0.748	0.996	-0.209	0.000232	-0.065	inactive
3	PIM3	-0.58	0.874	-0.304	-0.19	-0.219	inactive
4	DGKB	-1.82	0.759	-0.0438	-0.03	-0.094	inactive
5	PCBP1	0.0472	0.932	-0.137	-0.116	-0.0826	inactive
6	CLK4	-0.572	0.874	-0.135	-0.109	-0.128	inactive
7	RFK	-0.0107	0.926	-0.143	-0.0801	-0.0733	inactive
8	TGFBR3	0.789	1	-0.206	-0.0702	-0.117	inactive
9	SGK2	0.789	1	-0.033	0.0602	0.0175	inactive
10	PDXK	0.789	1	-0.175	-0.0078	-0.147	inactive
11	PFKFB3	-0.466	0.884	-0.061	-0.0847	0.089	inactive
12	BCR	-1.59	0.78	-0.189	-0.124	0.0249	inactive
13	PDPK1	0.332	0.958	-0.0787	-0.0635	-0.0728	inactive
14	STK24	0.789	1	-0.166	-0.0117	-0.131	inactive
15	VRK2	-1.88	0.754	-0.147	-0.179	-0.148	inactive
16	MAPK9	0.789	1	-0.206	-0.073	-0.148	inactive
17	UCK2	0.789	1	-0.14	0.0122	-0.0522	inactive
18	NTRK1	0.234	0.949	-0.0107	0.0261	0.171	inactive
19	EFNB3	0.557	0.979	-0.0226	-0.0929	-0.078	inactive
20	MKNK2	-0.465	0.884	-0.0656	0.0027	-0.0222	inactive
21	PRKCB	-0.049	0.923	-0.156	0.0356	-0.155	inactive
22	CSNK1G1	0.408	0.965	-0.103	-0.0399	-0.23	inactive
23	CAMK1D	-0.262	0.903	-0.173	-0.0822	-0.124	inactive
24	PANK2	0.789	1	-0.0193	0.0228	0.0738	inactive
25	ACVR1	-0.162	0.912	-0.116	-0.0873	-0.0394	inactive

4 entries from above, reformatted:
PIM3
- viability robust z-score, knock-down alone: -0.58
- viability, knock-down alone (DMSO) (fraction of control): 0.874
- synergy score with BYL719: -0.304
- synergy score with cetuximab: -0.19
- synergy score with trametinib: -0.219
- call: inactive

DGKB
- viability robust z-score, knock-down alone: -1.82
- viability, knock-down alone (DMSO) (fraction of control): 0.759
- synergy score with BYL719: -0.0438
- synergy score with cetuximab: -0.03
- synergy score with trametinib: -0.094
- call: inactive

PCBP1
- viability robust z-score, knock-down alone: 0.0472
- viability, knock-down alone (DMSO) (fraction of control): 0.932
- synergy score with BYL719: -0.137
- synergy score with cetuximab: -0.116
- synergy score with trametinib: -0.0826
- call: inactive

CLK4
- viability robust z-score, knock-down alone: -0.572
- viability, knock-down alone (DMSO) (fraction of control): 0.874
- synergy score with BYL719: -0.135
- synergy score with cetuximab: -0.109
- synergy score with trametinib: -0.128
- call: inactive

Next records follow.
no.	Target gene	viability robust z-score, knock-down alone	viability, knock-down alone (DMSO) (fraction of control)	synergy score with BYL719	synergy score with cetuximab	synergy score with trametinib	call
26	PAPSS2	0.203	0.946	-0.0937	-0.0706	-0.162	inactive
27	MGA	-0.208	0.908	-0.0679	0	-0.0758	inactive
28	STK32C	0.718	0.993	-0.149	-0.0584	-0.0756	inactive
29	PDGFRL	-0.541	0.877	-0.187	-0.105	-0.125	inactive
30	NUCKS1	0.789	1	-0.206	-0.073	-0.111	inactive
31	CAMKV	0.309	0.956	-0.1	0	-0.14	inactive
32	LIMK2	0.789	1	-0.0804	-0.073	-0.0769	inactive
33	ETNK1	-2.02	0.74	-0.189	-0.123	-0.0701	inactive
34	AMHR2	-2.02	0.741	0.0195	-0.0742	0.0218	inactive
35	AURKC	-1.76	0.765	-0.183	-0.146	-0.00718	inactive
36	MARK2	0.4	0.964	-0.0183	-0.0542	-0.0196	inactive
37	CAD	0.637	0.986	-0.174	-0.0861	-0.154	inactive
38	SMG1	-0.548	0.877	-0.172	-0.0371	-0.0124	inactive
39	PKN3	-0.147	0.914	-0.139	-0.0531	0.00297	inactive
40	DAPK2	0.789	1	-0.011	-0.0496	-0.0127	inactive
41	ALPK3	0.755	0.997	-0.173	-0.076	-0.224	inactive
42	PIK3R4	-0.85	0.849	-0.106	0.0398	-0.0272	inactive
43	STRADA	0.789	1	-0.0289	-0.073	-0.0689	inactive
44	CKMT1B	0.789	1	-0.168	-0.0727	-0.11	inactive
45	TPK1	-0.469	0.884	-0.0352	-0.156	-0.0272	inactive
46	BRD4	0.304	0.955	-0.107	0.0113	0.0289	inactive
47	AK2	0.789	1	-0.128	-0.073	-0.0684	inactive
48	MAPK1	-0.953	0.839	0.00813	0.00652	0.142	inactive
49	NEK1	0.789	1	-0.127	-0.047	-0.0489	inactive
50	SHPK	-0.828	0.851	-0.228	-0.171	-0.117	inactive
